Test: Estimated human brain concentrations and comparison with IC50 values
Details: endpoints whose IC50 lies at or close to the estimated brain concentration, ranked; a = acute, p = prolonged
Source text: To correlate reported effect concentrations to expected concentrations in the human brain during recreational use a brain partitioning factor (BPF; […]) was applied, as actual human brain concentrations following recreational drug use are unknown. Expected concentrations in the human brain were estimated by multiplying recreational human blood/serum/plasma concentrations with the BPF. Human recreational blood, serum, or plasma levels were obtained from literature (driving under the influence or accidental non-fatal intoxications). The BPF was determined for each drug by dividing the brain concentration by the blood/serum/plasma concentration found in human post mortem reports, or animal studies (rat/mice) when human data were insufficient.
To identify the relevance of effects and potentially harmful drugs, effect concentrations (IC50 values) were related to the estimated human brain concentration during recreational use [(brain), Table 2]. By comparing these concentrations, the most relevant neurotoxic mechanisms of cathinones can be identified. […] Only 4-MEC and MDPV inhibited neuronal activity during acute exposure at concentrations within (MDPV) or close to (4-MEC) the estimated brain concentration.

Row | SMILES | IC50 value at or close to estimated human (brain)
1 | CNC(C)C(=O)c1cccc(C)c1 (stereo not shown) [3-MMC, 2-(methylamino)-1-(3-methylphenyl) propan-1-one] | hDAT > hNET
2 | CCNC(C)C(=O)c1ccc(C)cc1 (stereo not shown) [4-MEC, 2-(ethylamino)-1-(4-methylphenyl) propan-1-one] | hDAT > hNET >> MSRa, MBRa, MNBRa
3 | CNC(C)C(=O)c1ccc(C)cc1 (stereo not shown) [4-MMC, 2-(methylamino)-1-(4-methylphenyl) propan-1-one] | hNET > hDAT
4 | CCCC(C(=O)c1ccc2c(c1)OCO2)N1CCCC1 (stereo not shown) [MDPV, 1-(1,3-benzodioxol-5-yl)-2-pyrro lidin-1-ylpentan-1-one] | hNET > hDAT >> hSERT >> MSRa, MSRp, MBRa, MNBRa
5 | CNC(C)C(=O)c1ccc2c(c1)OCO2 (stereo not shown) [Methylone, 1-(1,3-benzodioxol-5-yl)-2-(methylamino)propan-1-one] | hNET, hDAT >> hSERT
6 | CCCC(NC)C(=O)c1ccccc1 (stereo not shown) [Pentedrone, 2-(methylamino)-1-phenyl pentan-1-one] | hDAT > hNET
7 | CCCC(C(=O)c1ccccc1)N1CCCC1 (stereo not drawn) [α-PVP, α-pyrrolidinovalerophenone] | hNET > hDAT
